Results deposited as PubChem BioAssay AID1508597 (Cure First, 2020)
Shown is a random part of the about 2,100 reagents, under one of the conditions tested. 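Calls flag viability under 80% in either arm, not effects specific to rucaparib; the reference for percent is not stated.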 A reagent listed more than once was tested more than once; the source does not tell the runs apart. Reagent sequences are not shown. The record does not give: the 100% reference.

- Purpose: 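Survival screen with siRNA in ovarian cancer cells derived from patients, with or without rucaparib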 (primary screen)
- Cells: human ovarian carcinoma lines grown from tumours: OCI-P5x (papillary serous) and OCI-C5x (clear cell)
- Reagent: siRNA pool against human genes, 1.25 pmol siRNA per well
- Time to read-out: 72 h or 96 h, depending on the cell culture
- Challenge: rucaparib 20 µM (about IC30) or vehicle, present until read-out
- Rucaparib or vehicle: Vehicle
- Cell line: OCI-P5x (serous)
- Read-out: 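ATP luminescence measured at 72 or 96 h according to the culture, then normalised and expressed as percent viability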
- Reading the numbers: viability, normalised: higher = more viable cells remaining
- Hit rule: 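Active when normalised viability falls below 80 percent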
- Calls: active = viability under 80%; inactive = viability 80% or more

POLR2E (RNA polymerase II, I and III subunit E), technical replicate 1 showed viability, normalised (%) = 68; active. POLR2E (RNA polymerase II, I and III subunit E), technical replicate 2 gave viability, normalised (%) = 50.2; active. For POLR2E (RNA polymerase II, I and III subunit E), technical replicate 3, the entry reads viability, normalised (%) = 56.1; active. For CD40LG (CD40 ligand), technical replicate 1, the entry reads viability, normalised (%) = 75; active. With CD40LG (CD40 ligand), technical replicate 2, the values are viability, normalised (%) = 98.3; inactive. For CD40LG (CD40 ligand), technical replicate 3, the values are viability, normalised (%) = 90; inactive.

With DRD2 (dopamine receptor D2), technical replicate 1, the values are viability, normalised (%) = 55.3; active. DRD2 (dopamine receptor D2), technical replicate 2 scored viability, normalised (%) = 60.1; active. For DRD2 (dopamine receptor D2), technical replicate 3 the deposit lists viability, normalised (%) = 55.6; active.

Laid out differently: results already given.
gene,technical replicate,"viability, normalised (%)",activity call
CD40LG (CD40 ligand),2,98.3,inactive
CD40LG (CD40 ligand),3,90,inactive
DRD2 (dopamine receptor D2),1,55.3,active
DRD2 (dopamine receptor D2),2,60.1,active

More records follow.
PLCD1 (phospholipase C delta 1), technical replicate 1 scored viability, normalised (%) = 70.7; active. PLCD1 (phospholipase C delta 1), technical replicate 2 gave viability, normalised (%) = 80; inactive. With PLCD1 (phospholipase C delta 1), technical replicate 3, the values are viability, normalised (%) = 66.7; active. For RBL2 (RB transcriptional corepressor like 2), technical replicate 1 the deposit lists viability, normalised (%) = 74.4; active. With RBL2 (RB transcriptional corepressor like 2), technical replicate 2 the deposit lists viability, normalised (%) = 90.2; inactive. RBL2 (RB transcriptional corepressor like 2), technical replicate 3 gave viability, normalised (%) = 80.3; inactive.

PSKH2 (protein serine kinase H2), technical replicate 1 gave viability, normalised (%) = 88.8; inactive. PSKH2 (protein serine kinase H2), technical replicate 2 gave viability, normalised (%) = 81.7; inactive. PSKH2 (protein serine kinase H2), technical replicate 3 gave viability, normalised (%) = 86.7; inactive. With CLK2 (CDC like kinase 2), technical replicate 1, the values are viability, normalised (%) = 84.3; inactive. With CLK2 (CDC like kinase 2), technical replicate 1 the deposit lists viability, normalised (%) = 86.3; inactive. With CLK2 (CDC like kinase 2), technical replicate 2, the entry reads viability, normalised (%) = 44.1; active.

For CLK2 (CDC like kinase 2), technical replicate 2, the values are viability, normalised (%) = 79; active. CLK2 (CDC like kinase 2), technical replicate 3 gave viability, normalised (%) = 79.7; active. CLK2 (CDC like kinase 2), technical replicate 3 showed viability, normalised (%) = 83.9; inactive.
